# Assay results taken from PMC4589731.
# Results are given in words; binding and its absence hold for the method and conditions named. For some assays here: In cells and extracts the contact can be indirect. For some assays here: Binding can be weak; no strength is given. For some assays here: Where a sequence is shown, tags or fusion partners need not be part of it.
# T1: Flag-tagged CCDC8 (human) (UniProt Q9H0W5)
# T1 sequence: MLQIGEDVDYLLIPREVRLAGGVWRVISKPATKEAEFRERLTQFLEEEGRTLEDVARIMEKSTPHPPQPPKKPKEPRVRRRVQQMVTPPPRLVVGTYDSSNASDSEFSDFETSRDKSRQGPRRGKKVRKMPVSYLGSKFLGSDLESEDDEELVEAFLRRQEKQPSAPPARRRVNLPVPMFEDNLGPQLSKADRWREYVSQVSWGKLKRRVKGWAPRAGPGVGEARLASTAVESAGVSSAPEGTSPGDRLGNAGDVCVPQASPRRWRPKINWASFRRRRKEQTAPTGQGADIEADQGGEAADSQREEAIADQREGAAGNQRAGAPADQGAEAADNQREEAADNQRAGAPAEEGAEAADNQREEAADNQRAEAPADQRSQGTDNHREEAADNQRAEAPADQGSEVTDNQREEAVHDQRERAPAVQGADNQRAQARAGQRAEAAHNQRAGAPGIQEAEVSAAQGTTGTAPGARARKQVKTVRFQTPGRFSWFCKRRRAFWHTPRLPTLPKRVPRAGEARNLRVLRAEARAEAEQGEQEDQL
# Experiments:
# [1] = target: T1, Flag-tagged CCDC8 (human); assay: co-IP; lysates of transfected cells (BC100 buffer: 20 mM Tris-HCl pH 7.5, 100 mM NaCl, 1% Triton X-100, 1% CHAPS) incubated with anti-Flag M2 agarose beads at 4 °C overnight, five washes, eluted with 3xFlag peptide, Western blot; proteasome inhibitor PS-341 added in Fig. 4c
# [2] = target: Gag mutant Δ8-126 (lacking all but the first 8 amino acids in matrix) (HIV-1 (BH10 assumed)); assay: incorporation into virus-like particles (Western blot of viral lysates); virus-like particles released from transfected cells; viral lysates probed with anti-Gag-CAp24 and anti-CCDC8
Molecule,binding [1],binding [2]
exogenously expressed HIV-1 Gag (co-immunoprecipitation),binds,
"endogenous coiled-coil domain containing protein 8 (CCDC8) (protein, UniProt Q9H0W5 1-538) MLQIGEDVDYLLIPREVRLAGGVWRVISKPATKEAEFRERLTQFLEEEGRTLEDVARIMEKSTPHPPQPPKKPKEPRVRRRVQQMVTPPPRLVVGTYDSSNASDSEFSDFETSRDKSRQGPRRGKKVRKMPVSYLGSKFLGSDLESEDDEELVEAFLRRQEKQPSAPPARRRVNLPVPMFEDNLGPQLSKADRWREYVSQVSWGKLKRRVKGWAPRAGPGVGEARLASTAVESAGVSSAPEGTSPGDRLGNAGDVCVPQASPRRWRPKINWASFRRRRKEQTAPTGQGADIEADQGGEAADSQREEAIADQREGAAGNQRAGAPADQGAEAADNQREEAADNQRAGAPAEEGAEAADNQREEAADNQRAEAPADQRSQGTDNHREEAADNQRAEAPADQGSEVTDNQREEAVHDQRERAPAVQGADNQRAQARAGQRAEAAHNQRAGAPGIQEAEVSAAQGTTGTAPGARARKQVKTVRFQTPGRFSWFCKRRRAFWHTPRLPTLPKRVPRAGEARNLRVLRAEARAEAEQGEQEDQL",,no binding
